PubChem BioAssay AID652272 – Drosophila RNAi Screening Center – 2013
Assay: 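Finding fly genes that regulate Hedgehog signal transduction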 (primary screen). Cells: Drosophila clone 8 (Cl8) cells. Knock-down reagent: long dsRNA against Drosophila genes. Measured: 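Firefly light from a Hedgehog-responsive ptc promoter reporter and Renilla reference light, both read on a plate reader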. Direction: firefly Hh reporter signal: higher = more ptc reporter light; Renilla reference signal: higher = more Renilla control light. Active means: 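Hit when the z-score averaged over two replicates is under -2 or over +3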. Calls: active = hit: reporter lowered or raised; inactive = not a hit.
The screen tested about 21,000 reagents; below is a random part of those that have a named target and a result. Of all reagents, 503 (2.4%) are marked active. 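Raw plate light values, not normalised; calls rest on replicate z-scores that were not deposited; hits include reporter decreases as well as increases.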 Unmarked entries are inactive. Not given: the amount of reagent, the time to read-out.

target	amplicon	firefly Hh reporter signal, replicate 1	firefly Hh reporter signal, replicate 2	Renilla reference signal, replicate 1	Renilla reference signal, replicate 2
CG42714 (GeneID 10178862)	DRSC08798	1.12e5	2.31e5	2787	9131
CG18766 (GeneID 59150)	DRSC15936	1.09e5	65619	2829	1611
ORMDL (GeneID 40404)	DRSC11737	1.14e5	1.66e5	3829	4871
ND-23 (GeneID 44207)	DRSC15526	96853	84151	3347	3138
CG8813 (GeneID 33490)	DRSC00706	98407	1.02e5	3681	3859
Cog6 (GeneID 35953)	DRSC06806	79257	51061	3168	2018
Abi (GeneID 41718)	DRSC14099	85194	90881	3530	3632
Ski6 (GeneID 34721)	DRSC02491	1.66e5	83152	3961	6916
CG17362 (GeneID 39545)	DRSC10267	96816		4235	2716
CG1304 (GeneID 33074)	DRSC20494	1.25e5	2.56e5	4740	10832

Targets listed so far whose target name starts with C or c (6):
target	amplicon	firefly Hh reporter signal, replicate 1	firefly Hh reporter signal, replicate 2	Renilla reference signal, replicate 1	Renilla reference signal, replicate 2
CG42714 (GeneID 10178862)	DRSC08798	1.12e5	2.31e5	2787	9131
CG18766 (GeneID 59150)	DRSC15936	1.09e5	65619	2829	1611
CG8813 (GeneID 33490)	DRSC00706	98407	1.02e5	3681	3859
Cog6 (GeneID 35953)	DRSC06806	79257	51061	3168	2018
CG17362 (GeneID 39545)	DRSC10267	96816		4235	2716
CG1304 (GeneID 33074)	DRSC20494	1.25e5	2.56e5	4740	10832

Continued:
target	amplicon	firefly Hh reporter signal, replicate 1	firefly Hh reporter signal, replicate 2	Renilla reference signal, replicate 1	Renilla reference signal, replicate 2
CG18088 (GeneID 34219)	DRSC02654	85722	64106	2219	5994
CG12715 (GeneID 32252)	DRSC19492	58856	2.67e5	2133	9289
CG15605 (GeneID 36933)	DRSC06558	73997	38070	2048	3136
CG16799 (GeneID 37340)	DRSC06626	1.64e5	82685	5316	6400
Phf7 (GeneID 33015)	DRSC20692	1.25e5	95171	3168	2272
CG32633 (GeneID 326225)	DRSC18987	6.82e5	2.31e5	35655	5602
CG15879 (GeneID 38274)	DRSC08487	62181	55325	1590	4219
CG2256 (GeneID 31727)	DRSC18220	1.89e5	3.79e5	6664	13186
ClC-b (GeneID 36381)	DRSC07220	72000	44021	1760	3360
CG5773 (GeneID 37053)	DRSC06955	89649	62989	2387	4552
Phae1 (GeneID 34637)	DRSC02554	1.99e5	1.04e5	5349	8704
CG12983 (GeneID 40319)	DRSC11692	1.13e5	87371	4120	2582
NC2alpha (GeneID 37471)	DRSC04059	91024	45622	3302	1844
